EP4477673A1, “IMMUNOCONJUGATE AND USE THEREOF” (priority 2022, dated 2023)
Numbering of substitutions follows the chain as printed. Names and notes keep the numbering of the source. These are yes or no findings as the source states them, for the method shown. Some entries that bind do so weakly or less than the wild type.

Chains of the proteins cited; added tags and fusions are not shown. Lines headed by an entry give the natural chain unless they say otherwise; changes in a name come on top.
UniProt Q15116: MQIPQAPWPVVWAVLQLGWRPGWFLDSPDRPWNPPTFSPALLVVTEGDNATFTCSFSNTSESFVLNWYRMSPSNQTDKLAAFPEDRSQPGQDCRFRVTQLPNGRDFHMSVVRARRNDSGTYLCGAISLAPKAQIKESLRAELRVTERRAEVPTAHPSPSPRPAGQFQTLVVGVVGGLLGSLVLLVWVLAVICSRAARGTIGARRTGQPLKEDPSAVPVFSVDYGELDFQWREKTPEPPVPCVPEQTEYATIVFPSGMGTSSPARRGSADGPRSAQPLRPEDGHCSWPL

Legend:
[1] = target: Human PD-1 antigen protein (Sino Biological, 10377-H08H) (human) (UniProt Q15116); experiment: SPR Biacore 8K
[2] = target: T1, human IL-2Rβ/γ receptor heterodimer protein (Acrosystem, ILG-H5283) (human) (UniProt P14784+P31785); experiment: SPR Biacore 8K
T1 sequence (looked up) 1: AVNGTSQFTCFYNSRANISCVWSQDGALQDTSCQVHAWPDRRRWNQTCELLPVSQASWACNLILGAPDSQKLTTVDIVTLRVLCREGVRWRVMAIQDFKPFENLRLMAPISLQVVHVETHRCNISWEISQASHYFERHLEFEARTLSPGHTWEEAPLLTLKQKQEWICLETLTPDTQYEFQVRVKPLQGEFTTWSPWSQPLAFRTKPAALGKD
T1 sequence (looked up) 2: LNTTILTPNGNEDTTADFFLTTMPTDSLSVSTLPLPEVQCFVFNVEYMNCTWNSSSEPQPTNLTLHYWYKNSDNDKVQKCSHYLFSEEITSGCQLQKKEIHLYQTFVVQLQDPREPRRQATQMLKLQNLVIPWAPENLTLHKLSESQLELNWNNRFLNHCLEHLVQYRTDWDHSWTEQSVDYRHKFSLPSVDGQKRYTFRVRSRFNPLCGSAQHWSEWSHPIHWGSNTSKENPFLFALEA

B1: A-PC (Fc fusion)
chain (part 1 of 2): EVQLVESGGGLVQPGGSLRLSCAASGLTFSDYSMSWYRQAPGKGRELVAIISGSGVITHYVDSVKGRFTISRDNAKNTLYLQMRSLRAEDTAVYYCRAVSDWEDYWGQGTQVTVSS
chain (part 2 of 2): GGGGSGGGGSGGGGSAPASSSTKKTQLQLEHLLLDLQMILQGISNYKNPKLTRMLTAKFYMPKKATELKHLQCLEEELKPLEEVLQGAQSKNFHLRPRDLISNINVIVLELKGSETTFMCEYADETATIVEFLNRWITFAQSIISTLT
chain: B1 chain (part 1 of 2)
notes: also called positive control molecule A-PC; PD-1-IL-2v; not shown: IgG1 hinge (C220S) + Fc Knob chain (L234A, L235A, S354C, T366W, EU); D356/L358 or E356/M358 ver; IgG1 hinge (C220S) + Fc Hole chain (L234A, L235A, Y349C, T366S, L368A, Y407V; may have H435R, Y436F; EU)
binding [1]: binds | binding [2]: binds

B2: A-D20A (Fc fusion)
chain (part 1 of 2): B1 chain (part 1 of 2)
chain (part 2 of 2): B1 chain (part 2 of 2) with D35A
chain: B1 chain (part 1 of 2)
notes: also called PD-1-IL-2v (D20A); not shown: IgG1 hinge (C220S) + Fc Knob chain (L234A, L235A, S354C, T366W, EU); D356/L358 or E356/M358 ver; IgG1 hinge (C220S) + Fc Hole chain (L234A, L235A, Y349C, T366S, L368A, Y407V; may have H435R, Y436F; EU)
binding [1]: binds
